Assay results from the supplement of paper PMC10849652.
The list shows a part of the results.

Protein sequences, listed by entry. Tags and fused reporters are not part of them. Lines headed by an entry give the natural chain unless they say otherwise; changes in a name come on top.
UniProt Q9Y646: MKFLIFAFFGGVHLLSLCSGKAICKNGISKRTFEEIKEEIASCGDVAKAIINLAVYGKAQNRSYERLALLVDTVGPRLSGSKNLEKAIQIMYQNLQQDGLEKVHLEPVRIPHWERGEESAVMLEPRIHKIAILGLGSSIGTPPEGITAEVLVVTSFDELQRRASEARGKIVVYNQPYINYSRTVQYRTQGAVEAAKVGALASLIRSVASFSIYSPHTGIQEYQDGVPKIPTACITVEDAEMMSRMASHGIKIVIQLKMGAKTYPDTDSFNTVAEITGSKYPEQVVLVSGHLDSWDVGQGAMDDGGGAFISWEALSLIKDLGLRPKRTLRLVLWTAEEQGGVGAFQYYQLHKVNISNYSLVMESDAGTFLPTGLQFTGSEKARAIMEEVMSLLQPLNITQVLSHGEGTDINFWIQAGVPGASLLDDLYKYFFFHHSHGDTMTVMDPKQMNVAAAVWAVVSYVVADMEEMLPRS
UniProt Q92905, whole entry, looked up: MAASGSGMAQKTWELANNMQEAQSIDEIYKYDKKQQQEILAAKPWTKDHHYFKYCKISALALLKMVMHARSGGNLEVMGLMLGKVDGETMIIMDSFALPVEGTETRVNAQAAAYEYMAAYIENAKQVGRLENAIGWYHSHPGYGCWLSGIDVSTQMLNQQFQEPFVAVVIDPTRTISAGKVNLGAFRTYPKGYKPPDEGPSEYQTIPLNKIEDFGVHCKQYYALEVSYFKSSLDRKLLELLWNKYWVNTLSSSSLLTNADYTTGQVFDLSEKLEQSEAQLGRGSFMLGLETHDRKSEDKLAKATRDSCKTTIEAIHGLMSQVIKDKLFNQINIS
UniProt Q6PJW8: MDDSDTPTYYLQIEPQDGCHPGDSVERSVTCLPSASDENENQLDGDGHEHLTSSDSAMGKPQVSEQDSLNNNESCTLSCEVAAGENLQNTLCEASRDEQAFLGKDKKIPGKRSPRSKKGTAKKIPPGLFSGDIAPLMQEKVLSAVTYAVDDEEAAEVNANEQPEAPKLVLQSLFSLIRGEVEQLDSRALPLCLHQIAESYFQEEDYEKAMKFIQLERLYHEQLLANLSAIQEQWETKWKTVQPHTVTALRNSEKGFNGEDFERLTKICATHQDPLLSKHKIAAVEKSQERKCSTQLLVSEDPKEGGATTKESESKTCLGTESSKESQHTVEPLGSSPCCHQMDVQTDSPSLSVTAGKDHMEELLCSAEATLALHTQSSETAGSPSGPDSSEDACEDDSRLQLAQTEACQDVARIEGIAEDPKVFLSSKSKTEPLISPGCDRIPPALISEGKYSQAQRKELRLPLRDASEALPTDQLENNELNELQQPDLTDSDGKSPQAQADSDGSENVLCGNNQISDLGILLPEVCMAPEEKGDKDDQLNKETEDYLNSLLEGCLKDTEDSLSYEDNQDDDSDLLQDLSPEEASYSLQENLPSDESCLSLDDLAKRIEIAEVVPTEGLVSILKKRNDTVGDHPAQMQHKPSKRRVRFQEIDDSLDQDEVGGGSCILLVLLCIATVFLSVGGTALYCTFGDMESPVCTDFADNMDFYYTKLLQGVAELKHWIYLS
UniProt Q99829: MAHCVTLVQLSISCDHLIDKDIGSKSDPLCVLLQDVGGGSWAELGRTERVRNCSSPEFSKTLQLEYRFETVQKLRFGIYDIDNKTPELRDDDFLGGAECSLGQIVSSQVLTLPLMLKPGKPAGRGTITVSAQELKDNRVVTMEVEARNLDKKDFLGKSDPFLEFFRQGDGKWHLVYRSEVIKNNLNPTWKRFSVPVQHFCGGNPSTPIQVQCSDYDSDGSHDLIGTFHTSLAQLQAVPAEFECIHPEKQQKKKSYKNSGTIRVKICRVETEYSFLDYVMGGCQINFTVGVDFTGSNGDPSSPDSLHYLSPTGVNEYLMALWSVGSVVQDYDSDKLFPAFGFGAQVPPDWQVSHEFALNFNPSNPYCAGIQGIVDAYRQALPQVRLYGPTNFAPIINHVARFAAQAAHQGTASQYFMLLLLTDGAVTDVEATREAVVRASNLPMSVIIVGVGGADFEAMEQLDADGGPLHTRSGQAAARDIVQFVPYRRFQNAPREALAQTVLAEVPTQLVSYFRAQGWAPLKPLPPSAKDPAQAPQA
UniProt P24311, whole entry, looked up: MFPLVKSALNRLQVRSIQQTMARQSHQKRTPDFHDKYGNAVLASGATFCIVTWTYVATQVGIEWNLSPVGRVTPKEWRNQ
UniProt Q9H9A5, whole entry, looked up: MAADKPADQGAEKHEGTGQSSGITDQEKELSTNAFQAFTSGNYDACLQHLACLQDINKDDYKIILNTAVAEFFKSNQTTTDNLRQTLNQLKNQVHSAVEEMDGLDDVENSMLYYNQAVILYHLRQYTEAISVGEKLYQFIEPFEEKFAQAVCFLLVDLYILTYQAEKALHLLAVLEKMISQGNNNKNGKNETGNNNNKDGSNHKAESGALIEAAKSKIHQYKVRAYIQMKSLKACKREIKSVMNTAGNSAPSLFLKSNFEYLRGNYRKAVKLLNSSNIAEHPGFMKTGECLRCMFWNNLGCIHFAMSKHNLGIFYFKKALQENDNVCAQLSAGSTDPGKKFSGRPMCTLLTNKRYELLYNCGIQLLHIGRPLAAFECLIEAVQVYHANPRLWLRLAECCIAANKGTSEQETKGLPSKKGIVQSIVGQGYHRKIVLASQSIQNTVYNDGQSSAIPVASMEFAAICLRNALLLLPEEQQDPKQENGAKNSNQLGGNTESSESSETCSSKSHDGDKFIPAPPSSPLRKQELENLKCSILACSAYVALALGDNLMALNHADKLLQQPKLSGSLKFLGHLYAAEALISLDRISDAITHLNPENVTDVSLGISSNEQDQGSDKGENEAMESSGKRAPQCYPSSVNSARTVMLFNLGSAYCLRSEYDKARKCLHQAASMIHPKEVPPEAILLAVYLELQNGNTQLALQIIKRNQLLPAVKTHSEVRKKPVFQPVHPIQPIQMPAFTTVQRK
UniProt Q5TA50: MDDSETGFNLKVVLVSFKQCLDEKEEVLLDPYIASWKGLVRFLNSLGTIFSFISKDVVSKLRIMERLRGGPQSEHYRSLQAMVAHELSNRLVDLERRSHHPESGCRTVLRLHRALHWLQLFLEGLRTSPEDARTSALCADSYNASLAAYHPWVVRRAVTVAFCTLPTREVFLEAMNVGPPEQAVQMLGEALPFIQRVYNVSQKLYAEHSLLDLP
UniProt P20674, whole entry, looked up: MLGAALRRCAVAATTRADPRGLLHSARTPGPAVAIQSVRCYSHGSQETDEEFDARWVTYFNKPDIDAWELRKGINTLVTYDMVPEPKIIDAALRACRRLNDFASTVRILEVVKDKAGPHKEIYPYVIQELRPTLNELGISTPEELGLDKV
UniProt A8TX70: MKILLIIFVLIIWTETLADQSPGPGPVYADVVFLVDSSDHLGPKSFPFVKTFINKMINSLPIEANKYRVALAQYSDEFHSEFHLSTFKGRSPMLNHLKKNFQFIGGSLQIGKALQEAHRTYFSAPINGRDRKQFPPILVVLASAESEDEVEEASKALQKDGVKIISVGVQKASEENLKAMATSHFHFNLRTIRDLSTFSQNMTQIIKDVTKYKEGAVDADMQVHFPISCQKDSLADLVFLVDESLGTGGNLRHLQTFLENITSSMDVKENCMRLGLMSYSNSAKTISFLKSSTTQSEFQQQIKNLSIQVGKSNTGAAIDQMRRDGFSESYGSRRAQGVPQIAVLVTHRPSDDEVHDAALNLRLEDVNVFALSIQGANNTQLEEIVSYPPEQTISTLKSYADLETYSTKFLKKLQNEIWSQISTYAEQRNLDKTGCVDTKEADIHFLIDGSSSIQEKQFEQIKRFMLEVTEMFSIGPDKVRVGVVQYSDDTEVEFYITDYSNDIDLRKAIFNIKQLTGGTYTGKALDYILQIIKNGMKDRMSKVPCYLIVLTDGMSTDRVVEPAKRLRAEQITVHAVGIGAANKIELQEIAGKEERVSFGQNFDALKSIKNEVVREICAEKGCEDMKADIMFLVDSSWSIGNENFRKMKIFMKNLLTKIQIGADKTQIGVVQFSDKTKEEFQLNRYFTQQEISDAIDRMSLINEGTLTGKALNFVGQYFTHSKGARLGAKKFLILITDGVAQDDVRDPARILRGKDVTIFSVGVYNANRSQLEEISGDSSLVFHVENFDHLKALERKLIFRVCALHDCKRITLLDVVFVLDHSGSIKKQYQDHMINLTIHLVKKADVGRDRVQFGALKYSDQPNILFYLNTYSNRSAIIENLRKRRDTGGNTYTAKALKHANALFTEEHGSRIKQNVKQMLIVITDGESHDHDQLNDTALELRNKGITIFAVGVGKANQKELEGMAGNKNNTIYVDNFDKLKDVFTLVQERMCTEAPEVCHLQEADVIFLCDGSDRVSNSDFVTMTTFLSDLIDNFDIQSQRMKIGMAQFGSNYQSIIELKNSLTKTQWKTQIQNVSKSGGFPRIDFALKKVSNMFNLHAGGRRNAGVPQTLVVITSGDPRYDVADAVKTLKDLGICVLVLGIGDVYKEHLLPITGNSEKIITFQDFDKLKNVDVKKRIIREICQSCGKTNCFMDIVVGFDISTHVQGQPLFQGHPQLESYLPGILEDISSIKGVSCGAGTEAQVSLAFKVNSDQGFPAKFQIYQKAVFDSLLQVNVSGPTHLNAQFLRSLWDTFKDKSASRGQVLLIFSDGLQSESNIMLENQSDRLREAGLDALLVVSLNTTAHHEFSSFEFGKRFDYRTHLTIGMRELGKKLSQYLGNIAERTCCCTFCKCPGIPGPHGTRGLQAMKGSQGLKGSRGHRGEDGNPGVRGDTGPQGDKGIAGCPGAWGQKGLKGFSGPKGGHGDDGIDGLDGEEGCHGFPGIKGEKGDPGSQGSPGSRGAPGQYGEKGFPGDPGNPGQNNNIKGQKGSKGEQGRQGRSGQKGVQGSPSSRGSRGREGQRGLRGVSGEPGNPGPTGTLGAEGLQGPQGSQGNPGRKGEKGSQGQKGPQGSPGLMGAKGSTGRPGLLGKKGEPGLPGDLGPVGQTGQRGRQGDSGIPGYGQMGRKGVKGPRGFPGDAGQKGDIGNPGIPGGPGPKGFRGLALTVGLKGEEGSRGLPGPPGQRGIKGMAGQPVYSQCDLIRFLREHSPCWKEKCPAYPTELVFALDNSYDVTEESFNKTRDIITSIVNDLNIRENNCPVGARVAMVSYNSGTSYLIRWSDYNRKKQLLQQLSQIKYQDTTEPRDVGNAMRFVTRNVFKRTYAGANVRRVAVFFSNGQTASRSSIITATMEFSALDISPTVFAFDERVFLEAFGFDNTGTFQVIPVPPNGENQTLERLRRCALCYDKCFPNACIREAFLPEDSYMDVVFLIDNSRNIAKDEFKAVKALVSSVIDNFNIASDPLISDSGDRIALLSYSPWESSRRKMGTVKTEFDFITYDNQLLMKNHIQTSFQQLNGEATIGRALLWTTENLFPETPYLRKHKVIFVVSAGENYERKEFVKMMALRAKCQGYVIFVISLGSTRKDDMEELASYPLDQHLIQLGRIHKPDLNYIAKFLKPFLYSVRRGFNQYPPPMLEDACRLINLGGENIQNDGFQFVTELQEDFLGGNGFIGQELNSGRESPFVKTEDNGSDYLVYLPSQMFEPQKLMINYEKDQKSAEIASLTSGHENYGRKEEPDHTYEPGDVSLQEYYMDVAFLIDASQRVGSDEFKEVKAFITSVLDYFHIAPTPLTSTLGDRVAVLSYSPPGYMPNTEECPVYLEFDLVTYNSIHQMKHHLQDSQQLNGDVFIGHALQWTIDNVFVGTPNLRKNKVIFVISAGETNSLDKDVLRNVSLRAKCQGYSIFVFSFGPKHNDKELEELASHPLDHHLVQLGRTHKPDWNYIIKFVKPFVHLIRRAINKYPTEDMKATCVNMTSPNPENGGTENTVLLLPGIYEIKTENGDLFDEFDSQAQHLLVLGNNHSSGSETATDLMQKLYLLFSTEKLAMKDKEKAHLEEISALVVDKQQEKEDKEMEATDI
UniProt Q9BXS0: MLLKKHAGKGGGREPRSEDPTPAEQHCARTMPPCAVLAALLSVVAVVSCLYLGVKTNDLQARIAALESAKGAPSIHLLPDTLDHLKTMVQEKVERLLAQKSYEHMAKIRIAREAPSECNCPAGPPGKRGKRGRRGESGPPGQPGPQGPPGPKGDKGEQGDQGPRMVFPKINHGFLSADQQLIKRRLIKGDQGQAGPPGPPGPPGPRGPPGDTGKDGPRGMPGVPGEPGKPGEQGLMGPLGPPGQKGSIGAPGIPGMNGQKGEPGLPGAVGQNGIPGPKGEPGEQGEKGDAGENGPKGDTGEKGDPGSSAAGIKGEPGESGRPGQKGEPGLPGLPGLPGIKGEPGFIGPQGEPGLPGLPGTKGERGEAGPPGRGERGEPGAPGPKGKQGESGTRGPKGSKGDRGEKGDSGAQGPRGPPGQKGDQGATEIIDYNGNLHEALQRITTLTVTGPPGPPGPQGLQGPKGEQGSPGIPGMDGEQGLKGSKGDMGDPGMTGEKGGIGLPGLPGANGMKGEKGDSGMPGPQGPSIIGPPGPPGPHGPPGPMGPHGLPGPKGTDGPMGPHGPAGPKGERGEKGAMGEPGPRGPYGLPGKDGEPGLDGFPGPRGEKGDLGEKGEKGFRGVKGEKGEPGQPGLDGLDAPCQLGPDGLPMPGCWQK

How the values were obtained:
Assay in all cases: log2 fold change, soluble protein after heating vs DMSO (PISA); higher = thermal stabilisation; K562 lysate, 10 uM; active = over 0.2 and 3.5 SD of the protein, either way, in both replicates (recomputed)
alvocidib = compound: CN1CC[C@H](c2c(O)cc(O)c3c(=O)cc(-c4ccccc4Cl)oc23)[C@H](O)C1 [alvocidib]
In short: (§1)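 Quantification was by TMTpro 16plex LC-MS/MS with equalised channel sums, applied to the supernatant after 21,000xg for 90 min. Samples were crude K562 extract at 1 mg/mL protein in PBS pH 7.4 with 1 mM MgCl2, treated with 10 μM compound for 30 min, heated for 3 min across 48°C-58°C, pooled and brought to 0.5% NP-40 at 4°C. Values are log-two fold changes in thermal stability relative to solvent controls, from duplicates.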

Tubastatin A = compound: CN1CCc2c(c3ccccc3n2Cc2ccc(C(=O)NO)cc2)C1 [Tubastatin A]
In short: as §1

[1] = compound: CNC(=O)C1=CC=CC=C1NC2=NC(=NC=C2Cl)NC3=C(C=C(C=C3)N4CCOCC4)OC
In short: as §1

defactinib = compound: CNC(=O)c1ccc(Nc2ncc(C(F)(F)F)c(NCc3nccnc3N(C)S(C)(=O)=O)n2)cc1 [defactinib]
In short: as §1

[2] = compound: CNc1nc(-c2ccc3c(N)n[nH]c3c2)cc(N2C[C@@H](C(=O)NC3CCCCC3)CC[C@H]2C)n1
In short: as §1

encorafenib = compound: COC(=O)N[C@@H](C)CNc1nccc(-c2cn(C(C)C)nc2-c2cc(Cl)cc(NS(C)(=O)=O)c2F)n1 [encorafenib]
In short: as §1

[3] = compound: COC(=O)[C@H](CCSC)NC(=O)C1=C(C=C(C=C1)NC[C@H](CS)N)C2=CC=CC=C2
In short: as §1

alisertib = compound: COc1cc(Nc2ncc3c(n2)-c2ccc(Cl)cc2C(c2c(F)cccc2OC)=NC3)ccc1C(=O)O [alisertib]
In short: as §1

[4] = compound: COc1cc2nc(-c3cc(F)ccc3O)nc(N[C@@H]3CNC[C@H]3C(C)(C)O)c2cc1OC
In short: as §1

gefitinib = compound: COc1cc2ncnc(Nc3ccc(F)c(Cl)c3)c2cc1OCCCN1CCOCC1 [gefitinib]
In short: as §1

lapatinib = compound: CS(=O)(=O)CCNCc1ccc(-c2ccc3ncnc(Nc4ccc(OCc5cccc(F)c5)c(Cl)c4)c3c2)o1 [lapatinib]
In short: as §1

pictilisib = compound: CS(=O)(=O)N1CCN(Cc2cc3nc(-c4cccc5[nH]ncc45)nc(N4CCOCC4)c3s2)CC1 [pictilisib]
In short: as §1

crizotinib = compound: C[C@@H](Oc1cc(-c2cnn(C3CCNCC3)c2)cnc1N)c1c(Cl)ccc(F)c1Cl [crizotinib]
In short: as §1

[5] = compound: C[C@H](C1=CC=C(C=C1)C(=O)NC2=C3C=CNC3=NC=C2)N
In short: as §1

duvelisib = compound: C[C@H](Nc1ncnc2nc[nH]c12)c1cc2cccc(Cl)c2c(=O)n1-c1ccccc1 [duvelisib]
In short: as §1

gandotinib = compound: Cc1cc(Nc2cc(CN3CCOCC3)c3nc(C)c(Cc4ccc(Cl)cc4F)n3n2)n[nH]1 [gandotinib]
In short: as §1

tozasertib = compound: Cc1cc(Nc2cc(N3CCN(C)CC3)nc(Sc3ccc(NC(=O)C4CC4)cc3)n2)n[nH]1 [tozasertib]
In short: as §1

doramapimod = compound: Cc1ccc(-n2nc(C(C)(C)C)cc2NC(=O)Nc2ccc(OCCN3CCOCC3)c3ccccc23)cc1 [doramapimod]
In short: as §1

bafetinib = compound: Cc1ccc(NC(=O)c2ccc(CN3CC[C@H](N(C)C)C3)c(C(F)(F)F)c2)cc1Nc1nccc(-c2cncnc2)n1 [bafetinib]
In short: as §1

[6] = compound: Cc1cccc(CC(=O)N2CCc3c2ccc(-c2cn(C)c4ncnc(N)c24)c3F)n1
In short: as §1

Measured: log2 fold change

CPQ (UniProt Q9Y646)
inactive: alvocidib -0.002 | Tubastatin A 0.045 | [1] 0.033 | defactinib 0.035 | [2] 0.087 | encorafenib 0.058 | [3] -0.039 | alisertib -0.001 | [4] 0.013 | gefitinib -0.022 | lapatinib -0.05 | pictilisib -0.054 | crizotinib 0.006 | [5] 0.065 | duvelisib -0.007 | gandotinib -0.018 | tozasertib -0.049 | doramapimod 0.013 | bafetinib 0.067 | [6] -0.055

COPS5 (UniProt Q92905)
inactive: alvocidib 0.02 | Tubastatin A 0.016 | [1] -0.011 | defactinib -0.032 | [2] 0.012 | encorafenib -0.002 | [3] -0.05 | alisertib -0.004 | [4] 0.008 | gefitinib 0.025 | lapatinib -0.018 | pictilisib -0.01 | crizotinib -0.008 | [5] 0.006 | duvelisib 0.014 | gandotinib -0.007 | tozasertib 0.011 | doramapimod 0.03 | bafetinib 0.014 | [6] -0.015

CNST (UniProt Q6PJW8)
inactive: alvocidib 0 | Tubastatin A -0.055 | [1] 0.043 | defactinib 0.041 | [2] -0.027 | encorafenib 0.03 | [3] -0.096 | alisertib -0.031 | [4] 0.024 | gefitinib 0.002 | lapatinib 0.005 | pictilisib 0 | crizotinib 0.031 | [5] -0.022 | duvelisib -0.007 | gandotinib 0.033 | tozasertib 0.019 | doramapimod 0.005 | bafetinib 0.033 | [6] 0.025

CPNE1 (UniProt Q99829)
inactive: alvocidib -0.024 | Tubastatin A -0.004 | [1] 0.054 | defactinib -0.011 | [2] 0.026 | encorafenib 0.018 | [3] -0.019 | alisertib 0 | [4] -0.016 | gefitinib -0.009 | lapatinib 0.03 | pictilisib -0.052 | crizotinib -0.025 | [5] -0.065 | duvelisib 0.015 | gandotinib 0.018 | tozasertib 0.043 | doramapimod 0.044 | bafetinib 0.006 | [6] 0.04

Copied from the listing (2 entries):
CNST (UniProt Q6PJW8)
inactive: alvocidib 0 | Tubastatin A -0.055 | [1] 0.043 | defactinib 0.041 | [2] -0.027 | encorafenib 0.03 | [3] -0.096 | alisertib -0.031 | [4] 0.024 | gefitinib 0.002 | lapatinib 0.005 | pictilisib 0 | crizotinib 0.031 | [5] -0.022 | duvelisib -0.007 | gandotinib 0.033 | tozasertib 0.019 | doramapimod 0.005 | bafetinib 0.033 | [6] 0.025

CPNE1 (UniProt Q99829)
inactive: alvocidib -0.024 | Tubastatin A -0.004 | [1] 0.054 | defactinib -0.011 | [2] 0.026 | encorafenib 0.018 | [3] -0.019 | alisertib 0 | [4] -0.016 | gefitinib -0.009 | lapatinib 0.03 | pictilisib -0.052 | crizotinib -0.025 | [5] -0.065 | duvelisib 0.015 | gandotinib 0.018 | tozasertib 0.043 | doramapimod 0.044 | bafetinib 0.006 | [6] 0.04

(listing goes on)

COX7B (UniProt P24311)
inactive: alvocidib 0.013 | Tubastatin A 0.02 | [1] 0.112 | defactinib 0.042 | [2] -0.014 | encorafenib -0.022 | alisertib 0.028 | [4] 0.018 | gefitinib -0.139 | lapatinib -0.002 | crizotinib 0.058 | [5] 0.025 | duvelisib 0.005 | gandotinib 0.01 | tozasertib 0.035 | doramapimod 0.035 | [6] 0.099
active: [3] 0.315

CNOT10 (UniProt Q9H9A5)
inactive: alvocidib 0.017 | Tubastatin A -0.043 | [1] 0.025 | defactinib 0.018 | [2] 0.096 | encorafenib 0.014 | [3] 0.072 | alisertib 0.012 | [4] 0 | gefitinib 0.012 | lapatinib 0.013 | pictilisib 0.018 | crizotinib -0.016 | [5] -0.05 | duvelisib 0.002 | gandotinib -0.097 | tozasertib 0.007 | doramapimod -0.007 | bafetinib -0.031 | [6] 0.113

CPTP (UniProt Q5TA50)
inactive: alvocidib -0.057 | Tubastatin A -0.03 | [1] -0.027 | defactinib 0.067 | [2] 0.065 | encorafenib 0.07 | [3] 0.118 | alisertib 0.038 | gefitinib -0.012 | crizotinib 0.016 | [5] -0.041 | duvelisib -0.055 | gandotinib -0.138 | tozasertib -0.125 | doramapimod 0.03 | [6] 0.073

COG8 (UniProt Q96MW5)
inactive: alvocidib 0.112 | Tubastatin A -0.11 | [1] 0.011 | defactinib -0.068 | [2] -0.026 | encorafenib 0.044 | [3] -0.033 | alisertib 0.024 | [4] -0.003 | gefitinib -0.048 | lapatinib 0.032 | pictilisib 0.012 | crizotinib -0.096 | [5] 0.041 | duvelisib -0.115 | gandotinib -0.193 | tozasertib 0.053 | doramapimod 0.019 | bafetinib -0.021 | [6] 0.064

COPS4 (UniProt Q9BT78)
inactive: alvocidib 0.018 | Tubastatin A -0.006 | [1] 0.001 | defactinib 0.002 | [2] 0.003 | encorafenib -0.019 | [3] -0.033 | alisertib -0.007 | [4] -0.012 | gefitinib -0.033 | lapatinib -0.005 | pictilisib -0.039 | crizotinib 0.052 | [5] 0.037 | duvelisib -0.005 | gandotinib -0.081 | tozasertib 0.006 | doramapimod -0.036 | bafetinib 0.034 | [6] -0.099

COX5A (UniProt P20674)
inactive: alvocidib 0.226 | Tubastatin A 0.079 | [1] 0.117 | defactinib 0.14 | [2] 0.011 | encorafenib -0.005 | [3] -0.071 | alisertib 0.028 | [4] -0.036 | gefitinib -0.208 | lapatinib 0.036 | pictilisib -0.059 | crizotinib 0.03 | [5] 0.307 | duvelisib 0.036 | gandotinib -0.188 | tozasertib -0.032 | doramapimod -0.002 | bafetinib 0.055 | [6] -0.196

COL6A5 (UniProt A8TX70)
inactive: alvocidib -0.544 | Tubastatin A 0.029 | [1] -0.048 | defactinib -0.111 | [2] 0.256 | encorafenib -0.088 | [3] 0.1 | alisertib -0.038 | [4] 0.07 | gefitinib -0.034 | lapatinib -0.07 | pictilisib -0.035 | crizotinib -0.197 | duvelisib 0.013 | gandotinib 0.295 | tozasertib -0.099 | doramapimod 0.053 | bafetinib -0.13
active: [5] -0.966 | [6] 0.486

COL25A1 (UniProt Q9BXS0)
inactive: Tubastatin A 0.018 | alisertib -0.07 | [4] -0.121 | gefitinib 0.074 | lapatinib -0.13 | pictilisib -0.216 | bafetinib -0.34
